Record: PubChem BioAssay AID1224831 (NIAID, 2016)

Assay: 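Confirming genome-wide hits on LPS-triggered TNF-alpha induction with independent siRNA sequences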 (follow-up of hits)
System: human THP-1 B5 monocytic leukaemia cells carrying a TNF promoter luciferase reporter, made macrophage-like with PMA
Reagents: single siRNA against human genes, 50 nM
Time to read-out: about 68 h of knock-down, then 4 h LPS
Challenge: LPS (Salmonella minnesota, TLR-grade) at 10 ng/ml for 4 h; PMA 5 ng/ml present during knock-down
Measured: 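Firefly to renilla luciferase ratio of a TNF promoter reporter after 4 h LPS, scaled to plate median, turned into robust z-score, averaged over replicates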
Reading the numbers: TNF reporter z-score: higher = stronger LPS-induced TNF reporter signal; z-score, median over gene's siRNAs: higher = stronger TNF reporter signal across the gene's siRNAs
Call rule: 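Active when the replicate mean z-score is about -1 or lower, or about 1.5 or higher; lowered and raised TNF reporter signal both count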
Calls: active = changed TNF reporter (either direction); inactive = little change
The deposit covers about 3,500 reagents; shown is a random part of them. 731 of all reagents (21%) were called active. 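Active means either lowered or raised reporter signal; the gene-median score did not drive the per-siRNA calls.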 A number with no mark means an inactive call. Reagents against one gene are numbered here.

TEX2 (GeneID 55852) #1
- TNF reporter z-score, replicate mean: 2.38 (active)
- z-score, median over gene's siRNAs: -0.375

TEX2 (GeneID 55852) #2
- TNF reporter z-score, replicate mean: -0.29
- z-score, median over gene's siRNAs: -0.375

TEX2 (GeneID 55852) #3
- TNF reporter z-score, replicate mean: -0.46
- z-score, median over gene's siRNAs: -0.375

TEX2 (GeneID 55852) #4
- TNF reporter z-score, replicate mean: -0.89
- z-score, median over gene's siRNAs: -0.375

TEX2 (GeneID 55852) #5
- TNF reporter z-score, replicate mean: -0.11
- z-score, median over gene's siRNAs: -0.375

TEX2 (GeneID 55852) #6
- TNF reporter z-score, replicate mean: -0.7
- z-score, median over gene's siRNAs: -0.375

Next part; the last 2 above are carried over.
TEX2 (GeneID 55852) #5
- TNF reporter z-score, replicate mean: -0.11
- z-score, median over gene's siRNAs: -0.375

TEX2 (GeneID 55852) #6
- TNF reporter z-score, replicate mean: -0.7
- z-score, median over gene's siRNAs: -0.375

ITGB1BP1 (GeneID 9270) #1
- TNF reporter z-score, replicate mean: -0.12
- z-score, median over gene's siRNAs: -0.155

ITGB1BP1 (GeneID 9270) #2
- TNF reporter z-score, replicate mean: -1 (active)
- z-score, median over gene's siRNAs: -0.155

ITGB1BP1 (GeneID 9270) #3
- TNF reporter z-score, replicate mean: 0.92
- z-score, median over gene's siRNAs: -0.155

ITGB1BP1 (GeneID 9270) #4
- TNF reporter z-score, replicate mean: -0.19
- z-score, median over gene's siRNAs: -0.155

ITGB1BP1 (GeneID 9270) #5
- TNF reporter z-score, replicate mean: 0.41
- z-score, median over gene's siRNAs: -0.155

ITGB1BP1 (GeneID 9270) #6
- TNF reporter z-score, replicate mean: -1.73 (active)
- z-score, median over gene's siRNAs: -0.155

MEGF6 (GeneID 1953) #1
- TNF reporter z-score, replicate mean: 1.51 (active)
- z-score, median over gene's siRNAs: 0.315

MEGF6 (GeneID 1953) #2
- TNF reporter z-score, replicate mean: 0.85
- z-score, median over gene's siRNAs: 0.315

MEGF6 (GeneID 1953) #3
- TNF reporter z-score, replicate mean: -1.29 (active)
- z-score, median over gene's siRNAs: 0.315

MEGF6 (GeneID 1953) #4
- TNF reporter z-score, replicate mean: 4.28 (active)
- z-score, median over gene's siRNAs: 0.315

MEGF6 (GeneID 1953) #5
- TNF reporter z-score, replicate mean: -0.22
- z-score, median over gene's siRNAs: 0.315

MEGF6 (GeneID 1953) #6
- TNF reporter z-score, replicate mean: -0.3
- z-score, median over gene's siRNAs: 0.315
